Reference: PubChem BioAssay AID504744 (Drosophila RNAi Screening Center, 2011)
Test: 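Find genes whose loss alters insulin-driven dAkt phosphorylation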 (primary screen). Cells: Drosophila Kc167 cells. Reagent: long dsRNA against Drosophila genes, 250 ng dsRNA per well of a 384-well plate. Time to read-out: 3 days of knock-down, then overnight serum-free starvation before stimulation. Treatment: bovine insulin at 387 nM for 10 minutes after 12 h without serum. Measurement: 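In-cell antibody fluorescence for phospho-dAkt in each well over DNA-dye signal, with log2 residuals expressed as z-scores adjusted for cell count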. Rule for the call: 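Under insulin, a gene counts as a hit if the average z-score of two replicates lies above 2.5 or below -2.5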.
In all, the deposit lists about 23,000 reagents; shown is a random part of those with a known target gene and a result. Over the whole deposit, 98 (0.43%) are marked active. 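Only hit calls are given; the phospho-dAkt signals, z-scores and hit direction were not deposited.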 Names joined by + are all predicted targets of the reagent.

gene knocked down	amplicon	Outcome
bond	DRSC16135	inactive
scro	DRSC17099	inactive
scro	DRSC17102	inactive
GlyT	DRSC04512	inactive
Jheh2	DRSC06530	inactive
CG5783	DRSC02894	inactive
Cpr64Ab	DRSC08461	inactive
SecCl	DRSC10887	inactive
Osi4	DRSC12134	inactive
CG6337	DRSC06977	inactive
CG6337	DRSC21870	inactive
Pep	DRSC11252	inactive
CG6345	DRSC16024	inactive
CG12204	DRSC19442	inactive
Trc8	DRSC15437	inactive
mdy	DRSC01559	inactive
mdy	DRSC02250	inactive
CG15262	DRSC01975	inactive
CG32572	DRSC19525	inactive
CG32572	DRSC19526	inactive
CG7766	DRSC18424	inactive
CG14478	DRSC06450	inactive
CG32040	DRSC08981	inactive
CG32040	DRSC22459	inactive
Jon44E	DRSC07216	inactive
CG14879	DRSC15003	inactive
TER94	DRSC07560	inactive
CG17321	DRSC02598	inactive
CG10126	DRSC14191	inactive
CG33491 (retired record) + CG33496 (retired record) + CG33487 (retired record) + 1 more	DRSC22969	inactive
MBD-R2	DRSC14180	inactive
Sil1	DRSC14242	inactive
Mekk1	DRSC16302	inactive
Mekk1	DRSC16303	inactive
CG18480	DRSC01957	inactive
nAChRalpha2	DRSC17009	inactive
Jhbp16	DRSC15039	inactive
CG13252	DRSC11700	inactive
CG6287	DRSC02947	inactive
CG30411	DRSC04004	inactive
ppk8	DRSC17269	inactive
CG31510	DRSC14182	active
Ntf-2r	DRSC02019	inactive
ND-24	DRSC19960	inactive
Tango2	DRSC19394	inactive
Tango2	DRSC21526	inactive
CG13024	DRSC09904	inactive
CG15198	DRSC19645	inactive
CG14262	DRSC14757	inactive
CG6142	DRSC15976	inactive
CG6254	DRSC16002	inactive
Cdc5	DRSC08577	inactive
cyc	DRSC11337	inactive
Ing5	DRSC03188	inactive
Jhe	DRSC07174	inactive
Rrp6	DRSC16223	inactive
CR15280	DRSC01953	inactive
mab-21	DRSC18791	inactive
Atg8b	DRSC14501	inactive
CG13751	DRSC06422	inactive
ksh	DRSC19554	inactive
ACC	DRSC06059	inactive
ACC	DRSC07249	inactive
GstE5	DRSC06675	inactive
CG5478	DRSC15814	inactive
Arr2	DRSC09670	inactive
Kif3C	DRSC17209	inactive
Kif3C	DRSC17210	inactive
Task6	DRSC16530	inactive
CG31522	DRSC12005	inactive
PGRP-LA	DRSC10327	inactive
PGRP-LA	DRSC10414	inactive
Dhod	DRSC16647	inactive
HLH54F	DRSC07438	inactive
slam	DRSC03240	inactive
Fs	DRSC06258	inactive
Fs	DRSC06259	inactive
CG42750	DRSC02458	inactive
CG42750	DRSC03019	inactive
CG42750	DRSC03024	inactive
CG42750	DRSC21414	inactive
Rab6	DRSC03404	inactive

13 neighbouring reagents from above:
gene knocked down	amplicon	Outcome
GlyT	DRSC04512	inactive
Jheh2	DRSC06530	inactive
CG5783	DRSC02894	inactive
Cpr64Ab	DRSC08461	inactive
SecCl	DRSC10887	inactive
Osi4	DRSC12134	inactive
CG6337	DRSC06977	inactive
CG6337	DRSC21870	inactive
Pep	DRSC11252	inactive
CG6345	DRSC16024	inactive
CG12204	DRSC19442	inactive
Trc8	DRSC15437	inactive
mdy	DRSC01559	inactive

Additional results:
gene knocked down	amplicon	Outcome
Nepl3	DRSC02681	inactive
pygo	DRSC14322	inactive
Dis3	DRSC16034	inactive
Prp4k	DRSC08144	inactive
kappaB-Ras + CG30503	DRSC06619	inactive
kappaB-Ras + CG30503	DRSC07636	inactive
CG5402	DRSC15792	inactive
CG15353	DRSC00383	inactive
Abp1	DRSC09693	inactive
hydra	DRSC20497	inactive
mRpS16	DRSC07152	inactive
fid	DRSC14885	inactive
fid	DRSC16464	inactive
Snx1	DRSC00531	inactive
CG7406	DRSC20042	inactive
COX2 (retired record)	DRSC21276	inactive
CG15201	DRSC19648	inactive
CG5021	DRSC10469	inactive
drd	DRSC19343	inactive
drd	DRSC21466	inactive
CG34188	DRSC05549	inactive
CG13581	DRSC04216	inactive
Ir7g	DRSC18008	inactive
CG4949	DRSC19926	inactive
CG42735 (retired record)	DRSC00921	inactive
CG33124	DRSC00298	inactive
CG1138	DRSC12530	inactive
Mnr	DRSC20549	inactive
Mnr	DRSC20550	inactive
Mnr	DRSC22441	inactive
CG14420	DRSC17917	inactive
CG34238	DRSC09040	inactive
CG10265	DRSC05986	inactive
CG10265	DRSC21680	inactive
Cyp28d1	DRSC03298	inactive
Cyp28d1	DRSC21331	inactive
CG13795	DRSC02299	inactive
CG31321	DRSC13028	inactive
CG10338	DRSC02039	inactive
ptc	DRSC05117	inactive
ptc	DRSC07669	inactive
CG13457	DRSC10004	inactive
Roc1b + Cdc5	DRSC08687	inactive
CG12054	DRSC14467	inactive
wun	DRSC07719	inactive
CG6497	DRSC10654	inactive
CG6497	DRSC21469	inactive
edl	DRSC06516	inactive
CG1532	DRSC20516	inactive
bonsai	DRSC04453	inactive
CG13601	DRSC14604	inactive
CG9988	DRSC16587	inactive
dre4	DRSC08714	inactive
CG5863	DRSC15898	inactive
CG8298	DRSC07138	inactive
CG14567	DRSC11728	inactive
Sec61gamma	DRSC19570	inactive
imd	DRSC05928	inactive
CG14130	DRSC10134	inactive
Ugt37A3	DRSC15937	inactive
spo	DRSC11127	inactive
Cyp12c1	DRSC11125	inactive
Agpat3	DRSC10445	inactive
TwdlQ	DRSC14745	inactive
CG12343	DRSC06135	inactive
Nlg1	DRSC12485	inactive
Nlg1	DRSC12532	inactive
Nlg1	DRSC12533	inactive
Nlg1	DRSC12539	inactive
CG3065	DRSC04333	inactive
CG7745	DRSC07037	inactive
Skp2	DRSC12329	inactive
Sytbeta	DRSC10009	inactive
Sytbeta	DRSC10351	inactive
CG11333	DRSC14301	inactive
